The text below walks through data of PMC10770133.

Results are given in words; binding and its absence hold for the method and conditions named. In cells and extracts the contact can be indirect. A result given as binding can be weak or reduced; the word gives no strength.

The experiment addresses SIRT3. Nature of the experiment: co-IP; SIRT3 with PDHA1 and with CPT2; details only in Supplementary Fig. S7a, b.

B1: ectopically expressed CPT2 (enzyme, UniProt P23786 26-658)
chain: SAGSGPGQYLQRSIVPTMHYQDSLPRLPIPKLEDTIRRYLSAQKPLLNDGQFRKTEQFCKSFENGIGKELHEQLVALDKQNKHTSYISGPWFDMYLSARDSVVLNFNPFMAFNPDPKSEYNDQLTRATNMTVSAIRFLKTLRAGLLEPEVFHLNPAKSDTITFKRLIRFVPSSLSWYGAYLVNAYPLDMSQYFRLFNSTRLPKPSRDELFTDDKARHLLVLRKGNFYIFDVLDQDGNIVSPSEIQAHLKYILSDSSPAPEFPLAYLTSENRDIWAELRQKLMSSGNEESLRKVDSAVFCLCLDDFPIKDLVHLSHNMLHGDGTNRWFDKSFNLIIAKDGSTAVHFEHSWGDGVAVLRFFNEVFKDSTQTPAVTPQSQPATTDSTVTVQKLNFELTDALKTGITAAKEKFDATMKTLTIDCVQFQRGGKEFLKKQKLSPDAVAQLAFQMAFLRQYGQTVATYESCSTAAFKHGRTETIRPASVYTKRCSEAFVREPSRHSAGELQQMMVECSKYHGQLTKEAAMGQGFDRHLFALRHLAAAKGIILPELYLDPAYGQINHNVLSTSTLSSPAVNLGGFAPVVSDGFGVGYAVHDNWIGCNVSSYPGRNAREFLQCVEKALEDMFDALEGKSIKS
As for B1, the binding entry was “binds”.
